For the test, the target named is MC80S-F (Molluscum contagiosum virus (MCV genotype 1)). The experiment in a line: co-IP; anti-Flag IP of digitonin lysates of retrovirally transduced MEFs (MEF-L^d untreated; TAP1-/- MEFs +IFNɣ; MEF-L^d treated with MG132 for 8 h for the Derlin-1 blot), beads washed in 0.1% digitonin, eluted with Flag peptide or LDS sample buffer, immunoblot of eluates.

These are yes or no findings as the source states them, for the method shown. Binding seen in cells or lysates may run through a third protein. A result given as binding can be weak or reduced; the word gives no strength.

B1: Derlin-1 (mouse) (protein, UniProt Q99J56 1-251)
chain: MSDIGDWFRSIPAITRYWFAATVAVPLIGKLGIISPAYFFLWPEAFLYRFQIWRPFTATFYFPVGPGTGFLYLVNLYFLYQYSTRLEAGAFDGRPADYLFMLLFNWICIVITGLAMDMQLLMIPLIMSVLYVWAQLNRDLIVSFWFGTRFKACYLPWVILGFNYIIGGSVINELIGNLVGHLYFFLMFRYPMDLGGRNFLSTPQFLYRWLPSRRGGVSGFGVPPASMRRAADQNGGGGRHNWGQGFRLGDQ
Regarding B1, the binding entry was “binds”.

For the origin of these results see PMC6508746.
